Assay results taken from publication PMC9684134, “In vitro biochemical assessment of mixture effects of two endocrine disruptors on INS-1 cells” (Scientific Reports, 2022).
Like-named read-outs stand apart in the source and are kept apart here.

Test system: INS-1 cells
Assay: Glucose-galactose cytotoxicity assay (MTT)
Description: Sub-culturing was in ratio 4:3. Cell density was 15,000 cells/well and treated with 200 µL of the test solution that was solubilized in glucose-free RPMI medium supplemented with 5 mM glucose or 5 mM galactose. The cells were incubated further for 48 h. The spent medium was replaced with 100 µL glucose in RPMI medium. 2,4-dinitrophenol served as positive control. The cells were finally loaded with MTT as in section “Cell viability assay” but incubation took 120 min.

[1] = ratio greater than 1 indicative of potential mitochondrial toxicity

Compound | Glu- IC50/Gal- IC50 (fold value) [1] | Glu- IC50/Gal- IC50 (fold value) (ratio greater than 1 indicative of potential mitochondrial toxicity, listed as 4-tOP) | Glu- IC50/Gal- IC50 (fold value)
O=[N+]([O-])c1ccc(O)c([N+](=O)[O-])c1 [2,4-Dinitrophenol, 2,4-dinitrophenol, reference compound] | 1.88 |  | 
CC(C)(C)CC(C)(C)c1ccc(O)cc1 [4-tert-Octylphenol] | 0.97 | less than 1 | 
Oc1cc(Cl)ccc1Oc1ccc(Cl)cc1Cl [Triclosan] |  |  | 1.42
